This assay concerns the target c-Met (Homo sapiens, UniProt P08581). Briefly: Ki determination for the inhibition of c-Met (standard radiometric kinase assay). To be noted: read-out: c-Met Ki; radiometric 33P-ATP assay, 1.0 nM c-Met, 35 μM ATP, 0.5 mg/mL polyE4Y, competitive tight-binding fit. The procedure: Ki Determination for the Inhibition of c-Met
Compounds of the invention were screened for their ability to inhibit c-Met kinase activity using a standard radiometric assay. Briefly, in this kinase assay the transfer of the terminal ^33P-phosphate in ^33P-ATP to substrate polyE4Y is interrogated. The assay was carried out in 96-well plates to a final volume of 100 μL per well containing 1.0 nM c-Met, 100 mM HEPES (pH 7.5), 10 mM MgCl2, 25 mM NaCl, 0.01% BSA, 1 mM DTT, 0.5 mg/mL polyE4Y, and 35 μM ATP. Accordingly, compounds of the invention were dissolved in DMSO to make 10 mM initial stock solutions. Serial dilutions in DMSO were then made to obtain the final solutions for the assay. A 1.5 μL aliquot of DMSO or inhibitor in DMSO was added to each well. The reaction was initiated by the addition of ^33P-ATP and polyE4Y (obtained from Sigma). After 20 min, the reaction was quenched with 50 μL of 30% trichloroacetic acid (TCA) containing 4 mM ATP. […] Following the addition of 50 μL of Ultimate Gold™ high efficiency scintillant (Packard Bioscience), the samples were counted in a Packard TopCount NXT Microplate Scintillation and Luminescence Counter (Packard BioScience). The Ki values were calculated using Microsoft Excel Solver macros to fit the data to the kinetic model for competitive tight-binding inhibition. […]

By UniProt entry, the sequences of proteins in these tests, tags left out. Residues count along the entry.
UniProt P08581, 25-1390 limits assumed: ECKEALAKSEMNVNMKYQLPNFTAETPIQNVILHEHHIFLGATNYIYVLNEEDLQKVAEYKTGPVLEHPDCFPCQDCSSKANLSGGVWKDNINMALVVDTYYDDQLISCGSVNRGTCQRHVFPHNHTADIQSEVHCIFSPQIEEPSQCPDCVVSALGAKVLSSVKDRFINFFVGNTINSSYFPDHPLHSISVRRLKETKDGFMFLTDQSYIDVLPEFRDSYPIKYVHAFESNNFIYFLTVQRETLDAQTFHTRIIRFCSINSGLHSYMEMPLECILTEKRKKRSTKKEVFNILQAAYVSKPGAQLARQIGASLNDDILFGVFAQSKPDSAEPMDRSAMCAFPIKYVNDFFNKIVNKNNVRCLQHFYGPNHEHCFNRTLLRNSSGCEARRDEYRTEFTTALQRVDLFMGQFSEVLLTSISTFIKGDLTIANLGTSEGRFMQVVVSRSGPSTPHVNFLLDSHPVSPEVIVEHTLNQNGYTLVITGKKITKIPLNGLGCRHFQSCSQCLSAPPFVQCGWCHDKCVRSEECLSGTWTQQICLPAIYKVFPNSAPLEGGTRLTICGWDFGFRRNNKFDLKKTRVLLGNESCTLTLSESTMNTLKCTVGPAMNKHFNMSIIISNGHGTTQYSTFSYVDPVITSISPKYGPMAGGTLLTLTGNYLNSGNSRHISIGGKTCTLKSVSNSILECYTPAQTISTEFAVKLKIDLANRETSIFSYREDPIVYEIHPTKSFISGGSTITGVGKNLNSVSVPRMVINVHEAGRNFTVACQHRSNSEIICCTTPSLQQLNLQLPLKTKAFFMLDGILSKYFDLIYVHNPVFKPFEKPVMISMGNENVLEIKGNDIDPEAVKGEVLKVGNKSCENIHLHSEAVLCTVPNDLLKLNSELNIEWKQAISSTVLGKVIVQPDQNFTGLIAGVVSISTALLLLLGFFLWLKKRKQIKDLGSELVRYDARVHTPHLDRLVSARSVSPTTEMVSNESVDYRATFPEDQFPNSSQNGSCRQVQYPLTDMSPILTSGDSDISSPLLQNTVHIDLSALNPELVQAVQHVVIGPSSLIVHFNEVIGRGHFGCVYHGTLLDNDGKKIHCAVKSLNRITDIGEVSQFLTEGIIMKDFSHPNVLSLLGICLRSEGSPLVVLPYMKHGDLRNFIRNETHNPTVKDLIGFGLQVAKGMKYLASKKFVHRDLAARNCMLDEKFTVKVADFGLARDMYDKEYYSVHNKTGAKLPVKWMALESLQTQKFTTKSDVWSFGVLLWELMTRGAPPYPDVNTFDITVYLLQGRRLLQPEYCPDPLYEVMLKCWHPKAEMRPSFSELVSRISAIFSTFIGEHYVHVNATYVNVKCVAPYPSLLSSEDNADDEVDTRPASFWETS

The match of structure and compound is tentative.

Here are results for one compound from patent US8481538B2, “Heterocyclic inhibitors of c-Met and uses thereof” (Vertex Pharmaceuticals Incorporated, priority 2006, dated 2013).

As a reminder, the Ki is the dissociation constant of the complex between target and ligand, obtained from inhibition or displacement. Turning to `C[C@@H](NC(=O)c1nc(-c2cnn(C3CCNCC3)c2)cnc1N)c1nnc2sc(Nc3cccc(Cl)c3)nn12`, the inhibition constant Ki was below 250 nM.
